{"source": "patent US11304907B2", "about": "“Pharmaceutical compositions containing a DGAT1 inhibitor” (Novartis AG, priority 2010, dated 2022)", "experiment": "Physicochemical properties of the drug substance", "details": "sodium salt", "excerpt": "However, the compound of formula (I), or a pharmaceutically acceptable salt thereof, in particular the sodium salt thereof, is a drug substance which is difficult to formulate due to its physicochemical properties. […] It is also plate like, very fluffy, and sticky in nature.", "note": "Structures can show the parent of a compound that is named as a salt. At least one read-out could not be matched to a standard name with certainty."}
{"smiles": "O=C(O)C[C@H]1CC[C@H](c2ccc(-c3ccc(Nc4ccc(C(F)(F)F)nc4)cn3)cc2)CC1", "note": "[compound of formula (II), trans-(4-{4-[5-(6-Trifluoromethyl-pyridin-3-ylamino)-pyridin-2-yl]-phenyl}-cyclohexyl)-acetic acid, sodium salt]", "values": [{"measurement": "permeability", "result": "highly permeable"}]}
